Measured values taken from publication PMC8096781.

Biological target: T1, Flag-FOXM1D (overexpressed in HeLa cells) (UniProt Q08050)
T1 sequence: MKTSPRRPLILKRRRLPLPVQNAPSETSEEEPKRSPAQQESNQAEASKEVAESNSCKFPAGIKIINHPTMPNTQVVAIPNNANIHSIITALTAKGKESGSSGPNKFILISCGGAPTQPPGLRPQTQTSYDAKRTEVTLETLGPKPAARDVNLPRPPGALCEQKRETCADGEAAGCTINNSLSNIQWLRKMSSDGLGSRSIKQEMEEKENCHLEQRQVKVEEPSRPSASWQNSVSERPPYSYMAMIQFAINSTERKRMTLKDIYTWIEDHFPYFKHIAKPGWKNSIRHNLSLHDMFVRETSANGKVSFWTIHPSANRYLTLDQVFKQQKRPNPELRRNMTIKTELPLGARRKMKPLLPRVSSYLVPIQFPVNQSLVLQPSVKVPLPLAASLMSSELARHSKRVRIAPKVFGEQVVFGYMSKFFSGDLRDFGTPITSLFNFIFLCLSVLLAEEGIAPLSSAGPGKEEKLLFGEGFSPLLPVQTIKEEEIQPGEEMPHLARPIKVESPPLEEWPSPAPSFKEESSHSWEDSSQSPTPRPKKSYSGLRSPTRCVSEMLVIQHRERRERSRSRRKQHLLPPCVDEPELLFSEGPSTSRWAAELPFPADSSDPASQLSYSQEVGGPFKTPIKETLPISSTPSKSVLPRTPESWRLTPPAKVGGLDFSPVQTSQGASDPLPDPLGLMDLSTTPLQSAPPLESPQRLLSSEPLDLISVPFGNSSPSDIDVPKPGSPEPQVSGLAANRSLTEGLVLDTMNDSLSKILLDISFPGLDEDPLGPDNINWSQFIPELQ
Assay: affinity purification with mass spectrometry; Co-IP with rabbit anti-Flag antibody or rabbit control IgG isotype antibody from HeLa cells overexpressing Flag-FOXM1D, then LC-MS/MS

binding: binds
B1: endogenous VPS11 (HeLa cells) (protein, UniProt Q9H270 1-941)
chain: MAAYLQWRRFVFFDKELVKEPLSNDGAAPGATPASGSAASKFLCLPPGITVCDSGRGSLVFGDMEGQIWFLPRSLQLTGFQAYKLRVTHLYQLKQHNILASVGEDEEGINPLVKIWNLEKRDGGNPLCTRIFPAIPGTEPTVVSCLTVHENLNFMAIGFTDGSVTLNKGDITRDRHSKTQILHKGNYPVTGLAFRQAGKTTHLFVVTTENVQSYIVSGKDYPRVELDTHGCGLRCSALSDPSQDLQFIVAGDECVYLYQPDERGPCFAFEGHKLIAHWFRGYLIIVSRDRKVSPKSEFTSRDSQSSDKQILNIYDLCNKFIAYSTVFEDVVDVLAEWGSLYVLTRDGRVHALQEKDTQTKLEMLFKKNLFEMAINLAKSQHLDSDGLAQIFMQYGDHLYSKGNHDGAVQQYIRTIGKLEPSYVIRKFLDAQRIHNLTAYLQTLHRQSLANADHTTLLLNCYTKLKDSSKLEEFIKKKSESEVHFDVETAIKVLRQAGYYSHALYLAENHAHHEWYLKIQLEDIKNYQEALRYIGKLPFEQAESNMKRYGKILMHHIPEQTTQLLKGLCTDYRPSLEGRSDREAPGCRANSEEFIPIFANNPRELKAFLEHMSEVQPDSPQGIYDTLLELRLQNWAHEKDPQVKEKLHAEAISLLKSGRFCDVFDKALVLCQMHDFQDGVLYLYEQGKLFQQIMHYHMQHEQYRQVISVCERHGEQDPSLWEQALSYFARKEEDCKEYVAAVLKHIENKNLMPPLLVVQTLAHNSTATLSVIRDYLVQKLQKQSQQIAQDELRVRRYREETTRIRQEIQELKASPKIFQKTKCSICNSALELPSVHFLCGHSFHQHCFESYSESDADCPTCLPENRKVMDMIRAQEQKRDLHDQFQHQLKCSNDSFSVIADYFGRGVFNKLTLLTDPPTARLTSSLEAGLQRDLLMHSRRGT

Results are given in words; binding and its absence hold for the method and conditions named. In cells and extracts the contact can be indirect. These calls come from enrichment with a bait or labelling near it, and not all partners need be listed. Tags and fused reporters may be left off the sequences shown.
